# According to patent US7999069B2, “EphB receptor-binding peptides” (Sanford-Burnham Medical Research Institute, priority 2005, dated 2011):
# At least one peptide structure holds a part that was inferred or is arguable (an end, a ring closure or a residue). No end group written: not given here.
# What was measured:
# EphB1 = target: T1, EphB1 (Homo sapiens, UniProt P54762); test: Inhibition of ephrin-B2 AP binding to immobilized EphB1 ectodomain
# T1 construct: panned on the ectodomains of EphB1, EphB2, or EphB4 fused to human Fc
# T1 sequence (P54762 18-540 limits assumed): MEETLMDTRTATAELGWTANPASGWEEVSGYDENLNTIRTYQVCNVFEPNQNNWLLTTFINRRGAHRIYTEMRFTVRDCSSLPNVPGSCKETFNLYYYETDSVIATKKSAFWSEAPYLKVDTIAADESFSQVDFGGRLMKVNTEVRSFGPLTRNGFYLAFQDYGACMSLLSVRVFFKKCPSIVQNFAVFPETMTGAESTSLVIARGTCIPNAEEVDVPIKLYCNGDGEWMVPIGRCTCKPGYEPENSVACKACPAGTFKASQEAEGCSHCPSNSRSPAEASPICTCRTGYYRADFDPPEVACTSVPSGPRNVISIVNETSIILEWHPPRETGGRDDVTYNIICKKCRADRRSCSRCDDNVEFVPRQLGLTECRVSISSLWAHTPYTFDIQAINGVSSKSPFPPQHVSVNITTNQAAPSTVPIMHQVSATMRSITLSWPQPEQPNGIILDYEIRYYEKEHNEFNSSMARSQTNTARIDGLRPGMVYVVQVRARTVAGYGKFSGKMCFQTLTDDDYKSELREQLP
# Experimental: Peptides that bind to the same receptor region as the ephrins would be expected to inhibit Eph receptor-ephrin association, if they interact with sufficient affinity. A number of synthetic peptides were tested for their ability to inhibit binding of alkaline phosphatase-tagged ephrin-B2 (ephrin-B2-AP) to EphB receptors (FIG. 3). Most of the peptides were synthesized with a biotin tag and immobilized on streptavidin plates to verify their ability to capture the EphB ectodomains used for their isolation.
# Ephrin-B2 AP binding to the indicated immobilized EphB receptor ectodomains was measured in the presence of the indicated peptides and detected by measuring alkaline phosphatase activity. […]. […] Wells coated with the different EphB ectodomains were incubated with ephrin-B2 AP and 50 μM of the indicated peptides. Ephrin-B2 AP binding in the presence of peptide was normalized to binding in the absence of peptide. All peptides were biotinylated except for FSPQ and EWYM. […] Therefore, IPWT was not used for further experiments. […]
# The GP motif aligns with the GP motif of TNYL and the RAW motif aligns precisely next to the last amino acid of TNYL. […] After several washes, the amount of ephrin-B2-AP bound was quantified using p-nitrophenylphosphate as a substrate. […]
# EphB receptors = test: Ephrin-B2 AP binding to different EphB ectodomains in presence of peptide (selectivity); details: 50 μM peptide
sequence,measurement,setting,value
AHTFPYPHPKPH [SEQ ID NO 3],Inhibition of ephrin-B2 AP binding to EphB1 (in words),EphB1,inhibited ephrin binding to EphB1
same,Selectivity of antagonism of ephrin-B2 AP binding across EphB ectodomains,EphB receptors,inhibited ephrin-binding to several EphB receptors
